From the supplement of paper PMC10849652
The other results are listed elsewhere or left out.

By UniProt entry, the sequences of proteins in these tests, tags left out. Where a name states a change or a piece, a line headed by the entry shows the natural chain unless it says otherwise.
UniProt Q92538, whole entry, looked up: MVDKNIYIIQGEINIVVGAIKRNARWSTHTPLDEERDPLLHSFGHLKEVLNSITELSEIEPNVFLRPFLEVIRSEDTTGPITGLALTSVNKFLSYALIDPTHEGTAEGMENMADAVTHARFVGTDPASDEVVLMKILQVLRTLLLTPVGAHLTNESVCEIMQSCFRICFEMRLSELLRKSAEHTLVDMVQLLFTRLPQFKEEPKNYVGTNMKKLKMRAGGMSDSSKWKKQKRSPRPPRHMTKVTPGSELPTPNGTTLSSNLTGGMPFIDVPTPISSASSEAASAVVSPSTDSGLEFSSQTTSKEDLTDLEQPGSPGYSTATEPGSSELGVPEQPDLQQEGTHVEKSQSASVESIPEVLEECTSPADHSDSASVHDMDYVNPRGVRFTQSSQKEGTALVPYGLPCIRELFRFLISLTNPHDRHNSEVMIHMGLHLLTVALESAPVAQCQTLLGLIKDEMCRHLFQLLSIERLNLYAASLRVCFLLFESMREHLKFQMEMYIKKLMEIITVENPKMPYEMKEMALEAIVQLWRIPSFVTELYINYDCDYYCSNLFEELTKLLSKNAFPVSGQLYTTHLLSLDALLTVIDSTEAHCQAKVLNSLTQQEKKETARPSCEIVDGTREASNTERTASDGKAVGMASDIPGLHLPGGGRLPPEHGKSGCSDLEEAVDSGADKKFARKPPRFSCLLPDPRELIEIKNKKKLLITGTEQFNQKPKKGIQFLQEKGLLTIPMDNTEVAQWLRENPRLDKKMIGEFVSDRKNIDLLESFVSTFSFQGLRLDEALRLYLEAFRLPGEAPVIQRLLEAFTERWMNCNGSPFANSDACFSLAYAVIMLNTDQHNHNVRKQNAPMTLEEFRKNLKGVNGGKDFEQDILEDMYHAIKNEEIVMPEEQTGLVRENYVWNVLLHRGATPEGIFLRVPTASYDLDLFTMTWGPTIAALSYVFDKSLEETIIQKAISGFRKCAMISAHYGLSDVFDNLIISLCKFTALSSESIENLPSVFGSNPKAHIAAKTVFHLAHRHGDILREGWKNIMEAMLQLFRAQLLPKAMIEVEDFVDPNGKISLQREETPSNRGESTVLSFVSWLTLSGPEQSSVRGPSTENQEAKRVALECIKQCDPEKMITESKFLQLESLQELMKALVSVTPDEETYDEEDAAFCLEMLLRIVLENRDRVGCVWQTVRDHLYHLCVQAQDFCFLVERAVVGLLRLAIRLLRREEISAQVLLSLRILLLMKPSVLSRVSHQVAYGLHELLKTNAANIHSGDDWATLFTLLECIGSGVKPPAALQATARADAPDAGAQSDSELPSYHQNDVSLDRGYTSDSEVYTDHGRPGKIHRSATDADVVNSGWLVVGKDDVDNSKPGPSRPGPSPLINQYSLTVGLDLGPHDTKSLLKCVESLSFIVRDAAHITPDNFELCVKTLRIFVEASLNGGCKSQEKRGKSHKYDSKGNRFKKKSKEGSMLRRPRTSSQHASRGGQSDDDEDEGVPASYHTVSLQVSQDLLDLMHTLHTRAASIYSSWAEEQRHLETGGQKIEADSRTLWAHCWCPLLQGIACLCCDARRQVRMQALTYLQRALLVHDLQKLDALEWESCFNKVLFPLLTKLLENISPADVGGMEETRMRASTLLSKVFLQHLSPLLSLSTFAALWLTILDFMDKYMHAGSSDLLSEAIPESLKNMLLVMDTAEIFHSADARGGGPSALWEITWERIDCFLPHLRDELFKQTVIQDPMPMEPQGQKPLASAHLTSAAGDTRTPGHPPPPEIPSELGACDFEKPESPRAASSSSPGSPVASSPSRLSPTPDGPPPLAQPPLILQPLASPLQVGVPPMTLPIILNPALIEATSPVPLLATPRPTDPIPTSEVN
UniProt P30047: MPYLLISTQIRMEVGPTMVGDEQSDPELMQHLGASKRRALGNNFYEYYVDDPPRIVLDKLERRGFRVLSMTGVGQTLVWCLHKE
UniProt Q9NZC3: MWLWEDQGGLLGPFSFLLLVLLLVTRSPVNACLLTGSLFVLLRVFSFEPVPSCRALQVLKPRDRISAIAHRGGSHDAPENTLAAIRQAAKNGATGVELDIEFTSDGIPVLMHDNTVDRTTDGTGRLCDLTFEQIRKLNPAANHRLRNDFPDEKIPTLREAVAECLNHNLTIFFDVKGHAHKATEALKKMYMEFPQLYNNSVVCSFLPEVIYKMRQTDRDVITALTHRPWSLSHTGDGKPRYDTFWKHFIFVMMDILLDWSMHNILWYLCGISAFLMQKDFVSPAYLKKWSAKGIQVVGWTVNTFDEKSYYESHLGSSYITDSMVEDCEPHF
UniProt P23434: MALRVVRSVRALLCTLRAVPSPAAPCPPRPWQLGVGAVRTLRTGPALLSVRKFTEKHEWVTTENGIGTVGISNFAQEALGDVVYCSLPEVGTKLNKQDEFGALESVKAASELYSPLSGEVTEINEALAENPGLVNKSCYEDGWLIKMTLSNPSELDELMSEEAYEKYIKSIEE
UniProt P11413, whole entry, looked up: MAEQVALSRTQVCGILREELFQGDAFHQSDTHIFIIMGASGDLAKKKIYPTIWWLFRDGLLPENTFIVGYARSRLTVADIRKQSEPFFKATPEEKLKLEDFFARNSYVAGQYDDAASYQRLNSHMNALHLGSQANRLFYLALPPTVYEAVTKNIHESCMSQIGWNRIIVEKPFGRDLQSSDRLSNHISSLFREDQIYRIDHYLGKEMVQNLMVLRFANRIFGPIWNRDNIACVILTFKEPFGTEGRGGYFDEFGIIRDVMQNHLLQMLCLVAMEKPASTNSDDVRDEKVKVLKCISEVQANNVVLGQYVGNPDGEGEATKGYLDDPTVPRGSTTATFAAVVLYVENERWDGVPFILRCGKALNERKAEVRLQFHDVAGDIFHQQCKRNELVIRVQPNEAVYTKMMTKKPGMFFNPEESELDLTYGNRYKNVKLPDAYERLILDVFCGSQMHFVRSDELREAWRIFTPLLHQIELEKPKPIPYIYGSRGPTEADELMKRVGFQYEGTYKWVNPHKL
UniProt Q9NY12: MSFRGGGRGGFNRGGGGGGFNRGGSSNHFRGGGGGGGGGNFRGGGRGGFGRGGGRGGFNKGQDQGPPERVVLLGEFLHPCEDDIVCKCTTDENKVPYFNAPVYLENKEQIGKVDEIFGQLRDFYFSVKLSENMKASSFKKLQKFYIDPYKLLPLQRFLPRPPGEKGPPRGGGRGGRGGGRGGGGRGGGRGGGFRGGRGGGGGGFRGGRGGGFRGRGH
UniProt P04066: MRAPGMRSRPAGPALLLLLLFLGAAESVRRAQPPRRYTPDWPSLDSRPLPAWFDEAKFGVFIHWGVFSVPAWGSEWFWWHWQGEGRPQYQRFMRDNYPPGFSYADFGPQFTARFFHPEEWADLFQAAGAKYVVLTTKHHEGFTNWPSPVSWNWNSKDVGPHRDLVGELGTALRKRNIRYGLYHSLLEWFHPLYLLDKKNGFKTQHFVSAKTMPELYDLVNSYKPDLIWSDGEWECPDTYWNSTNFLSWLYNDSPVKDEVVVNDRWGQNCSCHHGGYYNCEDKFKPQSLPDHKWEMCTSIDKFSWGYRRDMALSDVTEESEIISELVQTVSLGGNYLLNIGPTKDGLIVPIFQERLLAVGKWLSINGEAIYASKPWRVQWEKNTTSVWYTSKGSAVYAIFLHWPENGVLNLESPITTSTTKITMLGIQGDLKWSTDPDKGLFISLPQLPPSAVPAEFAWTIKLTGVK
UniProt Q8NB37: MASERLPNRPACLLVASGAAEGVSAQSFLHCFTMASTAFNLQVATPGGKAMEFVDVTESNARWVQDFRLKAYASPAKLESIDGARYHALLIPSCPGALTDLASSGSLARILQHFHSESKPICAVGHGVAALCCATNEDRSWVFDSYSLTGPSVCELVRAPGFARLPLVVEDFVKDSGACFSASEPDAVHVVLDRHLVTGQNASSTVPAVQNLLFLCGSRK
UniProt O75600: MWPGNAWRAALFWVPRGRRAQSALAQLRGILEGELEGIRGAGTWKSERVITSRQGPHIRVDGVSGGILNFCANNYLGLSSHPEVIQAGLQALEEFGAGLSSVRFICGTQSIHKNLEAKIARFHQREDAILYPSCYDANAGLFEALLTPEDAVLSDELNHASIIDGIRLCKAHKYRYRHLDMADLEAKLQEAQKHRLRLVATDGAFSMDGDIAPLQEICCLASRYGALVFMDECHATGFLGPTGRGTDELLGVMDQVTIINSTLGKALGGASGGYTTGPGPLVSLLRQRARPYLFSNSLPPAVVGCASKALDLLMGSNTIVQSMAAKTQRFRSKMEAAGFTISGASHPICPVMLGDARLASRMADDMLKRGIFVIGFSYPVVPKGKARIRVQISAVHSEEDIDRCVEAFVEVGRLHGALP
UniProt P36268: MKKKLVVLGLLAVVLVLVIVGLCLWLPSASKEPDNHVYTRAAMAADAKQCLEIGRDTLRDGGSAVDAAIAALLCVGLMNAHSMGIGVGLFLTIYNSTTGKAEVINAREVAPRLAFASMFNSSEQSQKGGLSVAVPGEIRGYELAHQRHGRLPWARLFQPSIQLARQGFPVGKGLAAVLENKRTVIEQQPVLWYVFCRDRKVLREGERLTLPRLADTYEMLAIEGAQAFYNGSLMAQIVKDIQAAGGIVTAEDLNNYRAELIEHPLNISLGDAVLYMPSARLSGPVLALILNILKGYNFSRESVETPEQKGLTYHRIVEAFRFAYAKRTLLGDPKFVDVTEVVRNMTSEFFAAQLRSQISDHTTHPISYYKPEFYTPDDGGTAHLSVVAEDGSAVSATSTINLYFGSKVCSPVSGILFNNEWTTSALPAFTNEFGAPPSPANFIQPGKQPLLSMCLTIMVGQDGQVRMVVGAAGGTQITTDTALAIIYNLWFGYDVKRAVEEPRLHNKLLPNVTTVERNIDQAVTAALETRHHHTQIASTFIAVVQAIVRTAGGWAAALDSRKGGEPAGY
UniProt Q9BYC5: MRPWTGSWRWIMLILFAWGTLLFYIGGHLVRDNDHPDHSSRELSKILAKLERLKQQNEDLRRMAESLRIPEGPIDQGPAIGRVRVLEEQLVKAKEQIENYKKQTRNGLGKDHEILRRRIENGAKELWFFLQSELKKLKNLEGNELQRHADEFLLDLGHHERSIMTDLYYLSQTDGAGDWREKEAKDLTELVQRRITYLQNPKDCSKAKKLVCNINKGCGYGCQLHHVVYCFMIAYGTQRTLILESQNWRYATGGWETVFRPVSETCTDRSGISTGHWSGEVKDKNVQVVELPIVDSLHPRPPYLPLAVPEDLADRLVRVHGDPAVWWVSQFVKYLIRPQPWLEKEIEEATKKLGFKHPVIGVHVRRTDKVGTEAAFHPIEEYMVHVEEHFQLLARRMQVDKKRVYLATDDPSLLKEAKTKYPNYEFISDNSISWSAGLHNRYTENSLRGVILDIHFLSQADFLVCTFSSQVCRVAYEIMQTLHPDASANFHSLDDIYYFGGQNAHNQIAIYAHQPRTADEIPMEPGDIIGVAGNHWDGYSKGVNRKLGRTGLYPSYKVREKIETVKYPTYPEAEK
UniProt Q96I24: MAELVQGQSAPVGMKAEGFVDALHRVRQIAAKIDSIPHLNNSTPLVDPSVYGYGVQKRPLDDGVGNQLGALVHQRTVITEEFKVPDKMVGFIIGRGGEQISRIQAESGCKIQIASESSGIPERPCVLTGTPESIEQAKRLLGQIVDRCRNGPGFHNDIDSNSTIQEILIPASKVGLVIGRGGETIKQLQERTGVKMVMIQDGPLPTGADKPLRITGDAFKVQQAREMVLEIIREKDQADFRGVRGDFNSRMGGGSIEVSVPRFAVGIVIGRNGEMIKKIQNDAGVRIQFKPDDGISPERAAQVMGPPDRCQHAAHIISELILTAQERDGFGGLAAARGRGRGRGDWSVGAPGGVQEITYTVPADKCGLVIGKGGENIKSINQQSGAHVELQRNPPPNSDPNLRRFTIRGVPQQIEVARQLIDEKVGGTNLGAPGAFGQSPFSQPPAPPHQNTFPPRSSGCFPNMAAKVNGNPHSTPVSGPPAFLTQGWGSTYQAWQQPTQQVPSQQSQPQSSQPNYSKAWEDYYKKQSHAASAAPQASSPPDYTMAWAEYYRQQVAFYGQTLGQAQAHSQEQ
UniProt Q9H3K2: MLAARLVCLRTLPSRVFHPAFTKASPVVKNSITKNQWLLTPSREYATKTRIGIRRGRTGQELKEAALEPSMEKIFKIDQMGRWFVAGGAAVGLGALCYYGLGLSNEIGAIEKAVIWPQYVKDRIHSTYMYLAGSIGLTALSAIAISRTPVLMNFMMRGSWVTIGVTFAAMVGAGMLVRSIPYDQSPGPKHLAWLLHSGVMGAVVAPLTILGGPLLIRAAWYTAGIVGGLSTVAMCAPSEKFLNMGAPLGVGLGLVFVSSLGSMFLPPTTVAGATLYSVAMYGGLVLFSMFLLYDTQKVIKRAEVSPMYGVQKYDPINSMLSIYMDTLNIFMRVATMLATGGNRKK
UniProt P55789: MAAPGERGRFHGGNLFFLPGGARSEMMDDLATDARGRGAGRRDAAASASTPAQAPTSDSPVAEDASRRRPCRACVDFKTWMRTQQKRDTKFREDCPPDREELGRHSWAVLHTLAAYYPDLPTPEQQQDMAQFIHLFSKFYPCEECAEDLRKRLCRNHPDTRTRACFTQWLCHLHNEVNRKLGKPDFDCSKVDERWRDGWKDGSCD

Compound: C/C(=N\NC(=O)C1=CC(=CC=C1)S(=O)(=O)N2CCOCC2)/C3=C(C=CC(=C3)Cl)O
Assay: log2 fold change, soluble protein after heating vs DMSO (PISA); higher = thermal stabilisation; K562 cells, 10 uM, 30 min; active = over 0.2 and 3.5 SD of the protein, either way, in both replicates (recomputed)
Summary of the method: (§1)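 K562 cells at 2×10^6 cells/mL were given 10 μM compound for 30 min. Aliquots then went through 3 min of heating across 48°C-58°C, were pooled, and were extracted in PBS with 0.5% NP-40 at 4°C, and the supernatant after 21,000xg for 90 min was quantified by TMTpro 16plex LC-MS/MS with channel sums equalised. Thermal stability relative to control samples, from duplicates, is given as log2 fold change.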

log2 fold change, inactive:
GALNT7 (UniProt Q86SF2) 0.033
GEMIN6 (UniProt Q8WXD5) 0.02
GBF1 (UniProt Q92538) 0.077
GCHFR (UniProt P30047) 0.224
GARS1 (UniProt P41250) -0.01
GDE1 (UniProt Q9NZC3) 0.065
GALNT6 (UniProt Q8NCL4) 0.041
GGCT (UniProt O75223) 0.009
FSCN1 (UniProt Q16658) 0.04
GCSH (UniProt P23434) -0.023
G6PD isoform 2 (UniProt P11413) 0.025
FYCO1 isoform 4 (UniProt Q9BQS8) 0.02
FOXJ3 (UniProt Q9UPW0) 0.07
GAR1 (UniProt Q9NY12) -0.104
FUCA1 (UniProt P04066) 0.024
GATD1 (UniProt Q8NB37) -0.006
GAMT (UniProt Q14353) -0.013
GCAT isoform 2 (UniProt O75600) 0.112
FRYL (UniProt O94915) 0.026
GGT2 isoform 3 (UniProt P36268) 0.004
FUT8 (UniProt Q9BYC5) 0.019
GDI2 (UniProt P50395) -0.014
FXR2 (UniProt P51116) -0.131
GGA1 isoform 6 (UniProt Q9UJY5) 0.023
GDPD1 (UniProt Q8N9F7) 0.024
FOXRED1 (UniProt Q96CU9) 0.013
FUBP3 (UniProt Q96I24) 0.007
GGT7 (UniProt Q9UJ14) -0.006
GHITM (UniProt Q9H3K2) 0.033
GFER (UniProt P55789) 0.055
GADD45GIP1 (UniProt Q8TAE8) -0.095
GDAP1 (UniProt Q8TB36) -0.013

Compound: C1=CC(=C(C=C1Cl)C2=NC3=NC=CN=C3C(=N2)NC4=CC=NC=C4)F
Assay: as above
Summary of the method: as §1

log2 fold change, inactive:
GALNT7 (UniProt Q86SF2) 0.075
GEMIN6 (UniProt Q8WXD5) -0.042
GBF1 (UniProt Q92538) -0.049
GCHFR (UniProt P30047) 0.064
GARS1 (UniProt P41250) 0.045
GDE1 (UniProt Q9NZC3) 0.055
GALNT6 (UniProt Q8NCL4) 0.048
GGCT (UniProt O75223) 0.043
FSCN1 (UniProt Q16658) 0.159
GCSH (UniProt P23434) 0.253
G6PD isoform 2 (UniProt P11413) 0.058
FYCO1 isoform 4 (UniProt Q9BQS8) 0.023
FOXJ3 (UniProt Q9UPW0) 0.003
GAR1 (UniProt Q9NY12) -0.334
FUCA1 (UniProt P04066) 0.049
GATD1 (UniProt Q8NB37) 0.111
GAMT (UniProt Q14353) 0.041
GCAT isoform 2 (UniProt O75600) 0.078
FRYL (UniProt O94915) -0.032
GGT2 isoform 3 (UniProt P36268) -0.108
FUT8 (UniProt Q9BYC5) -0.07
GDI2 (UniProt P50395) 0.042
FXR2 (UniProt P51116) -0.203
GGA1 isoform 6 (UniProt Q9UJY5) -0.024
GDPD1 (UniProt Q8N9F7) -0.061
FOXRED1 (UniProt Q96CU9) 0.051
FUBP3 (UniProt Q96I24) 0.084
GGT7 (UniProt Q9UJ14) 0.084
GHITM (UniProt Q9H3K2) 0.03
GFER (UniProt P55789) -0.023
GADD45GIP1 (UniProt Q8TAE8) -0.03
GDAP1 (UniProt Q8TB36) 0.065

Compound: C1=CC(=CC=C1C2=NC3=C(N2)C=C(C=C3)C(=O)N)OC4=CC=C(C=C4)Cl
Assay: as above
Summary of the method: as §1

log2 fold change, inactive:
GALNT7 (UniProt Q86SF2) 0.013
GEMIN6 (UniProt Q8WXD5) 0.027
GBF1 (UniProt Q92538) -0.022
GCHFR (UniProt P30047) 0.079
GARS1 (UniProt P41250) -0.007
GDE1 (UniProt Q9NZC3) 0.019
GALNT6 (UniProt Q8NCL4) 0.029
GGCT (UniProt O75223) -0.015
FSCN1 (UniProt Q16658) -0.01
GCSH (UniProt P23434) 0.061
G6PD isoform 2 (UniProt P11413) -0.006
FYCO1 isoform 4 (UniProt Q9BQS8) 0.006
FOXJ3 (UniProt Q9UPW0) 0.098
GAR1 (UniProt Q9NY12) 0.027
FUCA1 (UniProt P04066) -0.007
GATD1 (UniProt Q8NB37) -0.012
GAMT (UniProt Q14353) -0.004
GCAT isoform 2 (UniProt O75600) 0.018
FRYL (UniProt O94915) 0.028
GGT2 isoform 3 (UniProt P36268) 0.096
FUT8 (UniProt Q9BYC5) -0.12
GDI2 (UniProt P50395) 0.019
FXR2 (UniProt P51116) -0.036
GGA1 isoform 6 (UniProt Q9UJY5) -0.018
GDPD1 (UniProt Q8N9F7) -0.018
FOXRED1 (UniProt Q96CU9) 0.03
FUBP3 (UniProt Q96I24) 0.019
GGT7 (UniProt Q9UJ14) -0.027
GHITM (UniProt Q9H3K2) 0.013
GFER (UniProt P55789) 0.059
GADD45GIP1 (UniProt Q8TAE8) 0.014
GDAP1 (UniProt Q8TB36) -0.005
